Data taken from US20240294544A1, “NEW SUBSTITUTED PYRIDINES AS FUNGICIDES” (BASF SE, priority 2021, published 2024).
Some of these results come from one statement about several compounds together.

Legend:
Assay type in all cases: cell-based
Botrytis cinerea = assay: Example 3: activity against the grey mold Botrytis cinerea in the microtiterplate test; conditions: 31 ppm active substance; relative to compound-free control (100%)
Fusarium culmorum = assay: Example 4: activity against Fusarium culmorum in the microtiterplate test; conditions: 31 ppm active substance; relative to compound-free control (100%)
Microdochium nivale = assay: Example 6: activity against Microdochium nivale in the microtiterplate test; conditions: 31 ppm active substance; DOB media (ph 7); relative to compound-free control (100%)
[1] = test system: Colletotrichum orbiculare; assay: Example 7: activity against Colletotrichum orbiculare in the microtiterplate test; conditions: 31 ppm active substance; DOB media (ph 7); relative to compound-free control (100%)
Leptosphaeria nodorum = assay: Example 8: activity against Leptosphaeria nodorum in the microtiterplate test; conditions: 31 ppm active substance; DOB media (ph 7); relative to compound-free control (100%)
Ustilago maydis = assay: Example 11: activity against Ustilago maydis in the microtiterplate test; conditions: 31 ppm active substance; DOB media (ph 7); relative to compound-free control (100%)
[2] = test system: Pyrenophora teres Qoi (FL129) resistant isolate; assay: Example 12: activity against Pyrenophora teres Qoi (FL129) resistant isolate in the microtiterplate test; conditions: 31 ppm active substance; DOB media (ph 7); relative to compound-free control (100%)
Leptosphaeria maculans = assay: Example 13: activity against Leptosphaeria maculans in the microtiterplate test; conditions: 31 ppm active substance; DOB media (ph 7); relative to compound-free control (100%)
Corynespora cassiicola = assay: Example 14: activity against Corynespora cassiicola in the microtiterplate test; conditions: 31 ppm active substance; DOB media (ph 7); relative to compound-free control (100%)
[3] = test system: Corynespora cassiicola (CORYCA-G) G413A mutant; assay: Example 15: activity against Corynespora cassiicola (CORYCA-G) G413A mutant in the microtiterplate test; conditions: 31 ppm active substance; DOB media (ph 7); relative to compound-free control (100%)
Monilinia laxa = assay: Example 10: activity against Monilinia laxa in the microtiterplate test; conditions: 31 ppm active substance; DOB media (ph 7); relative to compound-free control (100%)
Septoria tritici = assay: Example 5: activity against the leaf blotch on wheat caused by Septoria tritici in the microtiterplate test; conditions: 31 ppm active substance; relative to compound-free control (100%)
Fusarium gramminearis = assay: Example 9: activity against Fusarium gramminearis in the microtiterplate test; conditions: 31 ppm active substance; DOB media (ph 7); relative to compound-free control (100%)

Structure (SMILES) | growth of the pathogen (Botrytis cinerea) | growth of the pathogen (Fusarium culmorum) | growth of the pathogen (Microdochium nivale) | growth of the pathogen [1] | growth of the pathogen (Leptosphaeria nodorum) | growth of the pathogen (Ustilago maydis) | growth of the pathogen [2] | growth of the pathogen (Leptosphaeria maculans) | growth of the pathogen (Corynespora cassiicola) | growth of the pathogen [3] | growth of the pathogen (Monilinia laxa) | growth of the pathogen (Septoria tritici) | growth of the pathogen (Fusarium gramminearis)
Cc1cc(C2=NC3(CCC(C)(C)C3)Oc3ccccc32)cnc1C (stereo not drawn) [Ex-4] | ≤ 11% | ≤ 19% | ≤ 18% | ≤ 17% | ≤ 19% | ≤ 19% | ≤ 16% | ≤ 10% | ≤ 19% | ≤ 19% |  |  | 
Cc1cc(C2=NC(C)(C(C)C)Oc3ccccc32)cnc1C (stereo not drawn) [Ex-5] | ≤ 11% |  | ≤ 18% | ≤ 17% | ≤ 19% | ≤ 19% | ≤ 16% | ≤ 10% | ≤ 19% | ≤ 19% | ≤ 16% |  | 
Cc1cc(C2=NC(C)(CC(C)C)Oc3ccccc32)cnc1C (stereo not drawn) [Ex-8] | ≤ 11% | ≤ 19% | ≤ 18% | ≤ 17% | ≤ 19% | ≤ 19% | ≤ 16% | ≤ 10% | ≤ 19% | ≤ 19% |  | ≤ 20% | ≤ 17%
CCC1(C(C)C)N=C(c2cnc(C)c(C)c2)c2ccccc2O1 (stereo not drawn) [Ex-11] | ≤ 11% |  | ≤ 18% | ≤ 17% | ≤ 19% | ≤ 19% | ≤ 16% | ≤ 10% | ≤ 19% | ≤ 19% | ≤ 16% |  | 
Cc1cc(C2=NC(C)(C)Oc3c2cccc3C(C)(C)C)cnc1C [Ex-15] | ≤ 11% |  |  | ≤ 17% |  | ≤ 19% | ≤ 16% | ≤ 10% |  | ≤ 19% |  | ≤ 20% | 
Cc1cc(C2=NC(C(C)(C)C)Oc3ccccc32)cnc1C (stereo not drawn) [Ex-18] | ≤ 11% | ≤ 19% |  | ≤ 17% |  | ≤ 19% | ≤ 16% | ≤ 10% |  | ≤ 19% |  | ≤ 20% | 
Cc1cc(C2=NC(C3CC3)Oc3ccccc32)cnc1C (stereo not drawn) [Ex-40] | ≤ 11% |  | ≤ 18% | ≤ 17% | ≤ 19% | ≤ 19% |  | ≤ 10% |  |  | ≤ 16% |  | 
Cc1cc(C2=NC(C)(Cc3ccccc3)Oc3ccccc32)cnc1C (stereo not drawn) [Ex-44] | ≤ 11% | ≤ 19% | ≤ 18% | ≤ 17% | ≤ 19% | ≤ 19% | ≤ 16% | ≤ 10% | ≤ 19% | ≤ 19% | ≤ 16% |  | ≤ 17%
Cc1cc(C2=NC3(CCC3)Oc3cc(Cl)ccc32)cnc1C [Ex-67] | ≤ 11% | ≤ 19% | ≤ 18% |  | ≤ 19% | ≤ 19% |  |  | ≤ 19% | ≤ 19% |  |  | ≤ 17%
